Test results published in patent publication EP0319315A2, “The von Willebrand factor binding domain of factor VIII” (SCRIPPS CLINIC AND RESEARCH FOUNDATION, priority 1987, dated 1989).
At least one peptide structure holds a part that was inferred or is arguable (an end, a ring closure or a residue). Ends that are not written are not given here.

System: binding of C4 to FVIII
Test: ELISA: competitive inhibition of the binding of C4 to FVIII by FVIII peptide
Set-up: species or system human
Details: for reduction in antibody binding to FVIII: peptide at 1 uM, C4 binding

reduction in antibody binding to FVIII | absorbance reading (OD) (C4 0.7 ug/ml pre-incubated with peptide at 1uM) | Sequence
21% |  | YDEDENQSPRSFQKK [1680-1694]
15% |  | DDTISVEMKKEDFDI [1665-1679]
95% | 0.044 | VEMKKEDFDIYDEDE [VEMKKEDFDIYDEDE (1670-1684), VEMKKEDFDIYDEDE]
